From PubChem BioAssay AID2685 (National Center for Advancing Translational Sciences (NCATS), 2010)
The list shows a part of the results. The main result of the screen is listed elsewhere. These columns were measured beside it and carry no call. Compounds called inactive in the main read-out are mostly missing here. Potencies come from curve fits of mixed quality, noted in brackets.

Assay: qHTS Assay for Lipid Storage Modulators in Drosophila S3 Cells;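 on cell number change: cells counted by Cell Tracker Red CMTPX staining in the red channel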
Settings: BODIPY lipid droplet fluorescence, 18-24 h; for cell number change: measured here: cell count max response, cells fed with added oleic acid
Procedure, shortened: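 Drosophila S3 cells loaded with oleic acid (400 uM, as added) and compounds at several concentrations; lipid droplets imaged by 488-nm laser-scanning cytometry, 500–530 nm intensity and object ratio to cell channel. Percent activity normalized to 20 uM Triacsin C.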

[1] = measured here: lipid fluorescence (Fed channel) AC50, cells fed with added oleic acid
[2] = measured here: cell number channel AC50, cells fed with added oleic acid

C#CCn1c(=NC(=O)c2ccc(S(=O)(=O)N3CCCc4ccccc43)cc2)sc2cc(S(N)(=O)=O)ccc21
cell number change: 24.9%

COc1cc(C2NC(=O)NC(C)=C2C(=O)OC2CCCCC2)cc(Br)c1O (configuration not stated)
cell number change: 29.1% | AC50 [1]: 6.51 µM [rising, single point]

CCCn1cnc2c(c1=O)c1nc3ccccc3nc1n2Cc1ccccc1OC
cell number change: 136% | AC50 [1]: 1.46 µM [rising, partial curve]

CCOc1ccc(C(=O)NCc2ccccc2)cc1Br
cell number change: 8.12%

Cc1cccc(OCC(O)Cn2c(NCCCOC(C)C)nc3c2c(=O)[nH]c(=O)n3C)c1 (configuration not stated)
cell number change: 7.62% | AC50 [1]: 29.1 µM [rising, single point]

COc1ccccc1C(=O)OCC(=O)Nc1ccc(OC(F)F)cc1
cell number change: 30.6% | AC50 [2]: 7.31 µM [rising, partial curve, poor fit] | AC50 [1]: 1.16 µM [rising, full curve]

Cc1ccc(-c2cc(C(F)F)n3ncc(C(=O)NCc4ccco4)c3n2)cc1
AC50 [2]: 2.31 µM [rising, partial curve]

CC(C)(C)[C@@H]1CCC(=O)N(CC[C@H](N=[N+]=[N-])c2ccccc2)CC1
cell number change: -13.2% | AC50 [1]: 23.1 µM [falling, single point]

Nc1nc(Cl)c(C=O)c(N2CCCCC2)n1
cell number change: -19.3% | AC50 [1]: 0.092 µM [falling, full curve, poor fit]

Cc1ccc(CN(C)C(=O)c2c(C)nn(-c3ccccc3)c2C)cc1
cell number change: 50.4% | AC50 [2]: 5.17 µM [rising, partial curve, poor fit] | AC50 [1]: 6.51 µM [rising, single point]

C/C(=N\NC(=O)c1cccs1)C(C)(C)C
cell number change: 63.6% | AC50 [1]: 29.1 µM [rising, partial curve]

COc1cccc(-c2nnc(SCC(=O)OC(C)C)n2N)c1
cell number change: -3.65%

O=C1CCC(C(=O)OCC(=O)N2N=C3/C(=C/c4ccccc4)CCCC3C2c2ccccc2)N1 (configuration not stated)
cell number change: 9.16%

CCc1nn(C(C)C(=O)NC(C)CCc2ccco2)c(=O)c2cc3occc3n12 (configuration not stated)
cell number change: -5.32% | AC50 [1]: 9.2 µM [falling, partial curve, poor fit]

COc1ccc(-c2nn(-c3ccccc3)cc2/C=N/Nc2ccccn2)cc1OC
cell number change: 0.344% | AC50 [2]: 3.26 µM [rising, single point]

COc1ccc(NC(=S)N2C3CCC2CC(NC(=O)NC24CC5CC(CC(C5)C2)C4)C3)c(OC)c1 (configuration not stated)
cell number change: 45.9% | AC50 [2]: 13 µM [rising, single point] | AC50 [1]: 14.6 µM [rising, partial curve]

Nc1nc(-c2ccccc2)c(N=Nc2ccccc2Cl)s1
cell number change: -46.7% | AC50 [2]: 5.17 µM [falling, full curve] | AC50 [1]: 7.31 µM [falling, partial curve]

CCc1cccc2c(SCC(=O)NCC3CCCO3)nc(-c3ccc(F)cc3)nc12 (configuration not stated)
AC50 [1]: 0.13 µM [rising, full curve, poor fit]

CCc1[nH]nc(C(=O)N2CCCC(C(=O)c3cccc(C(F)(F)F)c3)C2)c1C (configuration not stated)
cell number change: -24.2% | AC50 [1]: 29.1 µM [falling, single point]

O=C(C1CCCCC1)N1CCCc2ccccc21
cell number change: 19.1% | AC50 [1]: 29.1 µM [falling, single point]

CCN(CC)c1ccc(/C=C(/C#N)C(=O)NCc2ccccc2)o1
AC50 [1]: 16.4 µM [falling, partial curve]

COc1ccc(C)cc1NC(=O)c1ccc(CN2CCc3ccccc3C2)cc1
cell number change: 20.7% | AC50 [1]: 29.1 µM [rising, single point]

CCCNC(=O)COC(=O)c1ccc(Cl)c(S(=O)(=O)N2CCCC2)c1
cell number change: 12.4% | AC50 [1]: 0.651 µM [rising, full curve, poor fit]

COc1ccccc1C(=O)NC(=O)CSc1nc2nc(C)cc(C)n2n1
cell number change: 8.58% | AC50 [2]: 6.51 µM [falling, single point] | AC50 [1]: 6.51 µM [falling, single point]

Cc1ccc(S(=O)(=O)N2CCOCC2)cc1NC(=O)CN1CCN(C)CC1
cell number change: -4.69%

O=C1C(Cc2ccccc2)SC(=Nc2ccccc2)N1c1ccccc1 (configuration not stated)
cell number change: -9.2%

O=C(CCCSc1nc2ccccc2[nH]1)Nc1nnc(-c2ccccc2)o1
cell number change: -25.6% | AC50 [1]: 23.1 µM [falling, single point]

CCN1CCN(CC(=O)N2N=C(c3cccs3)CC2c2ccc(OC)c(OC)c2)C(=O)C1=O (configuration not stated)
cell number change: 14.8%

COC(=O)CCCCCc1ccc(C(C)=O)s1
cell number change: 18.6% | AC50 [2]: 0.116 µM [falling, full curve, poor fit]

Cc1ccccc1-n1nnnc1-c1ccccc1
cell number change: -4.37% | AC50 [1]: 0.058 µM [rising, full curve]

Cc1cccc(NC(=O)CNC(=O)c2cn(Cc3ccccc3)nc2-c2cccnc2)c1C
cell number change: 1.47% | AC50 [1]: 14.6 µM [rising, partial curve]

O=C(c1ccc(Oc2ccc(C(F)(F)F)cn2)cc1)N1CCN(c2ccccc2)CC1
AC50 [1]: 23.1 µM [rising, single point]

CCOC(=O)c1ccccc1NC(=O)COC(=O)C1CC(=O)N(CCc2ccccc2)C1 (configuration not stated)
cell number change: 18.5%

O=C(OCc1nnc(-c2ccc([N+](=O)[O-])cc2)o1)c1ccc(F)c(S(=O)(=O)N2CCOCC2)c1
cell number change: -2.01%

COc1cccc(CN=C2Nc3ccccc3CS2)c1
cell number change: 22.3% | AC50 [2]: 0.13 µM [rising, full curve, poor fit]

Cc1cc(C)n2nc(SCc3nnc(SCc4ccccc4C)s3)nc2n1
AC50 [2]: 3.26 µM [rising, single point] | AC50 [1]: 4.11 µM [rising, partial curve]

COCCCNC(=S)N1CCCN(c2nc3cc(C)c(C)cc3cc2C#N)CC1
cell number change: 1.57% | AC50 [1]: 29.1 µM [falling, single point]

O=C(COc1ccccc1Cl)N1CCNC1=O
cell number change: 1.5%

Cc1ccc(NC(=O)C2CCCN2C(=O)c2cccs2)cc1C (configuration not stated)
cell number change: 38.3% | AC50 [2]: 9.2 µM [rising, partial curve, poor fit] | AC50 [1]: 1.46 µM [falling, full curve, poor fit]

Cc1c(C(=O)Nc2ccc(Cc3ccncc3)cc2)cccc1[N+](=O)[O-]
cell number change: -9.11%

COC(=O)CNC(=O)C(NC(=O)c1ccc(Cl)cc1)C(C)C (configuration not stated)
AC50 [1]: 29.1 µM [falling, partial curve]

O=C(Nc1ccc(Oc2ccc(Cl)cc2)c(Cl)c1)c1cc(I)cc(I)c1O
cell number change: -4.24%

CC(=O)Nc1ccc(NC(=O)c2sc3nc4c(c(-c5ccc(C)cc5)c3c2N)CCC4)cc1
cell number change: -45.7% | AC50 [2]: 23.1 µM [falling, single point] | AC50 [1]: 23.1 µM [falling, single point]

Fc1ccc2nc(N3CCCCC3)sc2c1
cell number change: 45.1% | AC50 [2]: 0.731 µM [rising, full curve, poor fit] | AC50 [1]: 0.116 µM [rising, full curve, poor fit]

COc1cccc(CNC(=O)N[C@@H](CC(C)C)C(=O)O)c1
cell number change: 17.8% | AC50 [1]: 20.6 µM [falling, single point]

NC(=O)c1ccc(-n2nnnc2SCC(=O)Nc2ccccc2)cc1
cell number change: 4.99%

Cc1cc(N2C(=O)C(O)=C(C(=O)c3ccco3)C2c2cccc(O)c2)no1 (configuration not stated)
cell number change: 11.9%

CCOc1ccc2c(c1)c(C(C)=O)c(C)n2-c1ccccc1
cell number change: 41.8% | AC50 [2]: 1.84 µM [rising, full curve]

COc1ccc(NC(=O)Cc2cccc3ccccc23)cc1
cell number change: -8.29% | AC50 [1]: 29.1 µM [rising, single point]

CCc1n[nH]c(=S)n1/N=C/c1c[nH]c2ccc(Br)cc12
cell number change: 20.4%

COc1ccc(-n2ncc3c2CC(C)(C)CC3NC(=O)c2cnc(C)cn2)cc1 (configuration not stated)
cell number change: -12.7% | AC50 [1]: 0.731 µM [falling, full curve, poor fit]

COc1cccc(OCc2cc(/C=N/Nc3ccc(C(=O)O)cc3)ccc2OC)c1
cell number change: -6.67% | AC50 [2]: 0.651 µM [falling, single point]

CNC(=O)/C(C#N)=C/c1c(F)cccc1Cl
AC50 [1]: 13 µM [falling, partial curve]

O=C1CC(N2CCCCCC2)C(=O)N1c1ccc2c(c1)OCO2 (configuration not stated)
cell number change: -2.23% | AC50 [1]: 29.1 µM [rising, single point]

CC(=O)c1ccc(NC(=O)CSc2nnc(-c3ccoc3C)n2Cc2ccccc2)cc1
AC50 [2]: 1.84 µM [rising, partial curve] | AC50 [1]: 0.731 µM [rising, full curve]

CCOC(=O)c1cc2n(c1/N=C/N(C)C)-c1ccccc1C2=O
cell number change: 126% | AC50 [2]: 0.291 µM [rising, full curve] | AC50 [1]: 0.411 µM [rising, partial curve, poor fit]

COc1ccc(CNC(=O)CCCn2nc(C)n3c(cc4sccc43)c2=O)cc1
cell number change: 11.8% | AC50 [1]: 29.1 µM [falling, single point]

Cc1cc(C)cc(NC(=O)C2CCCN(S(=O)(=O)c3ccc4[nH]c(=O)ccc4c3)C2)c1 (configuration not stated)
cell number change: 19.9% | AC50 [2]: 0.58 µM [rising, full curve, poor fit]

O=C(NCCn1cccn1)C1CCC(=O)N(CCc2cccc(F)c2)C1 (configuration not stated)
cell number change: 13.9% | AC50 [2]: 0.13 µM [rising, full curve, poor fit]

Cc1cccn2c(=O)c(C=C(C#N)C#N)c(N3CCN(c4cccc(Cl)c4)CC3)nc12
cell number change: 2.95% | AC50 [1]: 6.51 µM [falling, partial curve, poor fit]

CCOC(=O)N1CCN(S(=O)(=O)c2ccc(OCC)cc2)CC1
cell number change: 41.9% | AC50 [2]: 29.1 µM [rising, single point]

O=C(NC(=S)NCc1ccccc1)c1cccnc1
cell number change: 18.8% | AC50 [1]: 1.03 µM [rising, partial curve, poor fit]
